Over roughly 33,000 sequences, “E-score (-0.5 to 0.5)” has its median near -0.016; the highest 2% begin near 0.3. Some of the results follow.
Each sequence was assayed against T1, Yer184c (UniProt P39961) (assay: PBM E-score (8-mer binding enrichment) (E-score (-0.5 to 0.5)); higher = stronger / more preferred TF binding). Conditions: protein concentration: 100 nM; construct: GST-full length.
T1 sequence: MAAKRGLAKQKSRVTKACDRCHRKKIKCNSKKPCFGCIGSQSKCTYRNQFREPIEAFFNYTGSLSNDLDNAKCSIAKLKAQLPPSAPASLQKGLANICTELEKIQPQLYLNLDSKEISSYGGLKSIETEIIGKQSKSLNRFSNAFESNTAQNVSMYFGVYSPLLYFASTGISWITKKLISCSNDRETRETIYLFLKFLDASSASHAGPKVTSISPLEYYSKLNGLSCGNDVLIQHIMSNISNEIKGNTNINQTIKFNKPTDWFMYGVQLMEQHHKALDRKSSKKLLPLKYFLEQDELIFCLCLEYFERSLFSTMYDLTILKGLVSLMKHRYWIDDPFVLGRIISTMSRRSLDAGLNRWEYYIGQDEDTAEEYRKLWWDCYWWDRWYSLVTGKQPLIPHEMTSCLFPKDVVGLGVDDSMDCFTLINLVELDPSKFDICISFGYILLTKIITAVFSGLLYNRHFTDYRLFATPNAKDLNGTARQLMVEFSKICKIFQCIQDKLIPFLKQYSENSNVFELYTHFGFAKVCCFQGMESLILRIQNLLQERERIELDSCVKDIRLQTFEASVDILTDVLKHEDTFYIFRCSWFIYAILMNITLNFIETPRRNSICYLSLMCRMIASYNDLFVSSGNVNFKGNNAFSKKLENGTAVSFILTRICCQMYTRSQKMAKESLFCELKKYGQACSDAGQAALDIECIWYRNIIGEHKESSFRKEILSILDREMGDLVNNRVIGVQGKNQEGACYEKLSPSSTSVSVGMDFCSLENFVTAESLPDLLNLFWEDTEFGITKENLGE
Outline: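 Each ungapped eight-base word and its reverse complement, pooled, received an E-score from the Universal PBM Analysis Suite. Underlying scans, normalised with masliner, recorded fluorescent anti-GST bound to GST-tagged yeast transcription factors. These were applied at about 100-200 nM to universal all-10-mer Agilent arrays double-stranded by primer extension.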
In the case of CAGTGCGG, the “PBM E-score” value is reported as 0.115.
In the case of CTTTCTAC, the “PBM E-score” value is reported as -0.0164.
With CTAAACTC the “PBM E-score” value was -0.0375.
For TCATTACA, the “PBM E-score” value was 0.118.
In the case of ATTACATA, the “PBM E-score” value is reported as 0.0972.
AGATTACT was tested, and the “PBM E-score” value was 0.059.
GCGGTGTA was tested, and the “PBM E-score” value was 0.00944.
With AGATACCT the “PBM E-score” value was -0.128.
CTAGAAAG was tested, and the “PBM E-score” value was -0.0631.
ATATCAGC was tested, and the “PBM E-score” value was -0.163.
In the case of GGGCAATA, the “PBM E-score” value is reported as -0.0856.
With TGAATGAA the “PBM E-score” value was 0.0647.
CGACTTTA was tested, and the “PBM E-score” value was 0.0976.
With AAAGACGG the “PBM E-score” value was 0.11.
For AACGTGTA, the “PBM E-score” value was -0.102.
In the case of ACGGAACT, the “PBM E-score” value is reported as 0.197.
For CTGTAATC, the “PBM E-score” value was -0.0408.
AGAGATCA was tested, and the “PBM E-score” value was -0.125.
For ATCGAAAT, the “PBM E-score” value was -0.0691.
In the case of CAAGTTCG, the “PBM E-score” value is reported as -0.0965.
With ATCGACTA the “PBM E-score” value was -0.0998.
With TATCAGCA the “PBM E-score” value was 0.0986.
With CAAGATGA the “PBM E-score” value was -0.182.
In the case of ACCCAAGG, the “PBM E-score” value is reported as -0.162.
With TAACGGGA the “PBM E-score” value was 0.0886.
In the case of CAAGATAA, the “PBM E-score” value is reported as 0.068.
For ATATGTAA, the “PBM E-score” value was 0.104.
In the case of ATAATGGG, the “PBM E-score” value is reported as 0.00169.
CGGACGAC was tested, and the “PBM E-score” value was 0.23.
For ACTCCGTA, the “PBM E-score” value was -0.0281.
In the case of AGACCAGC, the “PBM E-score” value is reported as -0.256.
For CTTATCGC, the “PBM E-score” value was -0.00943.
For TGGCACCA, the “PBM E-score” value was -0.25.
In the case of GACCGCAC, the “PBM E-score” value is reported as -0.146.
With ACGGTTCC the “PBM E-score” value was 0.127.
For GCAGTCCA, the “PBM E-score” value was -0.103.
In the case of ATTGTGGG, the “PBM E-score” value is reported as -0.173.
For AGCGCGAT, the “PBM E-score” value was -0.00195.
In the case of GCTCCGAC, the “PBM E-score” value is reported as -0.0639.
In the case of ATCTGGGC, the “PBM E-score” value is reported as -0.18.
ATTCTGCA was tested, and the “PBM E-score” value was 0.124.
AGACGTTC was tested, and the “PBM E-score” value was 0.0147.
In the case of ATGCGCCA, the “PBM E-score” value is reported as -0.156.
In the case of ACCTAAAG, the “PBM E-score” value is reported as 0.084.
GTCAAGAC was tested, and the “PBM E-score” value was -0.127.
In the case of CCAAACCG, the “PBM E-score” value is reported as 0.136.
For AGGGAGAA, the “PBM E-score” value was -0.0924.
In the case of CAACCAAA, the “PBM E-score” value is reported as -0.00617.
For AACTCTAC, the “PBM E-score” value was -0.121.
ACAAGTAG was tested, and the “PBM E-score” value was -0.201.
With CATTGCTA the “PBM E-score” value was 0.057.
For CCTCTTAA, the “PBM E-score” value was 0.0803.
In the case of CCACTACA, the “PBM E-score” value is reported as -0.155.
AGTAAGCC was tested, and the “PBM E-score” value was -0.207.
In the case of AAGGTCTG, the “PBM E-score” value is reported as -0.0795.
ATTTCGCA was tested, and the “PBM E-score” value was 0.24.
CCAATTCG was tested, and the “PBM E-score” value was -0.0621.
With AGATAAGC the “PBM E-score” value was -0.051.
CGTAAGTA was tested, and the “PBM E-score” value was 0.0901.
For CCCAAAGG, the “PBM E-score” value was -0.158.
With CTCACATC the “PBM E-score” value was -0.123.
In the case of GAGCTACA, the “PBM E-score” value is reported as -0.129.
With CATATATA the “PBM E-score” value was 0.28.
For AGGGACCC, the “PBM E-score” value was -0.319.
For ACGATCGG, the “PBM E-score” value was 0.0369.
In the case of CCTGAGAC, the “PBM E-score” value is reported as -0.242.
With CGCCGTTC the “PBM E-score” value was 0.164.
In the case of TCCTTTCA, the “PBM E-score” value is reported as 0.0974.
In the case of AGTAAAGC, the “PBM E-score” value is reported as 0.0937.
With AACCGCCG the “PBM E-score” value was 0.223.
With AACAGGAC the “PBM E-score” value was -0.0566.
With AGACAATG the “PBM E-score” value was -0.0462.
With GTGCAATA the “PBM E-score” value was -0.0961.
For AAATGCGC, the “PBM E-score” value was 0.162.
In the case of GACCCATA, the “PBM E-score” value is reported as -0.0721.
With GATAATGA the “PBM E-score” value was 0.077.
For AACCGTTA, the “PBM E-score” value was 0.0014.
For AGGTGTCC, the “PBM E-score” value was -0.0169.
With AAGAAAGT the “PBM E-score” value was 0.148.
GGTCATCA was tested, and the “PBM E-score” value was -0.19.
ACTCACGC was tested, and the “PBM E-score” value was -0.0772.
ACTCTATA was tested, and the “PBM E-score” value was -0.0712.
For CATCGTAA, the “PBM E-score” value was 0.0806.
For ACATCACA, the “PBM E-score” value was -0.056.
For GCGTCAGA, the “PBM E-score” value was -0.23.
GCCGATTA was tested, and the “PBM E-score” value was 0.274.
In the case of AACTACTA, the “PBM E-score” value is reported as 0.112.
For ATTGCCCC, the “PBM E-score” value was -0.24.
In the case of CCAGGCCC, the “PBM E-score” value is reported as -0.138.
With CCTACTAC the “PBM E-score” value was -0.0717.
With TCAATCGA the “PBM E-score” value was 0.0483.
ATCCCAAA was tested, and the “PBM E-score” value was -0.015.
For CAGAGTGG, the “PBM E-score” value was -0.205.
With AGAAACAG the “PBM E-score” value was -0.0454.

From the supplement of paper PMC3334620
